Laboratory results reported in paper PMC4405350, “From Broad-Spectrum Biocides to Quorum Sensing Disruptors and Mussel Repellents: Antifouling Profile of Alkyl Triphenylphosphonium Salts” (PLoS ONE, 2015).

These compounds were tested on violacein production of C. violaceum CVO26 (assay: Quorum sensing bioassay: violacein production). Conditions: IC50 for growth inhibition / IC50 for violacein inhibition.
Type: cell-based, Chromobacterium violaceum
Procedure: The reporter strain C. violaceum CVO26 (CECT 5999) was used to screen the ability of the products to interfere with violacein production, a QS-regulated phenotype. C. violaceum CVO26 is a mini-Tn5 mutant that depends on an exogenous source of autoinducer (AI) (N-hexanoyl homoserine lactone, HHL) for violacein production. C. violaceum CVO26 was cultured in LB broth (Sigma-Aldrich) supplemented with 25 μg ml^-1 kanamycin. Inocula were prepared by dilution (1:100) of an overnight culture of the reporter strain [49]. One hundred microliters of inoculum with HHL (Sigma-Aldrich, 6 μM) or without the AI were added to 96-well plates containing 100 μl of the appropriate dilutions of the test products in LB. Thus, two sets of plates were prepared. One set of plates (without HHL) was used to evaluate the effect of the products on bacterial growth, whereas the other set of plates (with HHL) was used to evaluate their effect on violacein production. Both sets of plates were incubated at 30 °C with agitation (150 rpm) for 18 h.
Growth inhibition was quantified in the first batch of plates by re-suspending bacterial pellets and measuring the OD625. From the second batch of plates violacein was extracted and quantified. Briefly, the plates were dried overnight (60 °C) and violacein was re-solubilized by the addition of 200 μl of DMSO. The plates were shaken for 3 h and then the OD590 was determined.
To evaluate the effect of the alkyl triphenylphosphonium salts on QS-regulated phenotypes, an initial screening at the cut-off concentration of 100 μM was conducted with C. violaceum CVO26. The QS model of C. violaceum is relatively simple and consists of an acyl-homoserine lactone synthase (CviI) that produces the AI molecule N-hexanoyl homoserine lactone (HHL, strain ATCC 31532), or N-3-hydroxydecanoyl homoserine lactone (strain ATCC 12472) which is recognized by the cytoplasmic receptor CviR (Fig 4). The reporter strain CVO26 is a CviI::mini-Tn5 mutant of strain ATCC 31532 and thus recognizes HHL. CviR is a DNA-binding transcription factor that activates the expression of the genes encoding the production of violacein, the characteristic purple alkaloid that gives name to the species.
Indeed, the inhibitions observed in violacein production for long alkyl chains (10–18, 20) were clearly correlated to the biocidal effect exerted by these compounds, with ‘therapeutic ratios’ (IC50 for growth inhibition/IC50 for violacein inhibition) around 1, in general (Table 2). Note that, as the length of the hydrocarbon chain becomes shorter, this ratio increased (8–9). […] To evaluate these compounds in further detail, […] stock solutions were prepared […] to avoid the use of high concentrations of DMSO in the bioassays. […] Serial two-fold dilutions (500–3.9 μM) were assayed. Consequently, the highest amount of DMSO used in the assay was 0.25% (v/v). […] Growth inhibitory effects are only observed at 500 μM, particularly for compound 7 (Fig 6D).

Question: With `C/C=C/C[P+](c1ccccc1)(c1ccccc1)c1ccccc1` [Compound 3] as the compound, how does the “Ratio (GI/VI)” value read?
Answer: >5.4

Question: Which “Ratio (GI/VI)” value does the source give for `CCCCCCCCCCCCCCC[P+](c1ccccc1)(c1ccccc1)c1ccccc1` [Compound 15] here?
Answer: 2.2

Question: Which “Ratio (GI/VI)” value does the source give for `CCCCC[P+](c1ccccc1)(c1ccccc1)c1ccccc1` [Compound 7] here?
Answer: >9.5

Question: `CCCCCCCCCC[P+](c1ccccc1)(c1ccccc1)c1ccccc1` [Compound 10] was tested. Which “Ratio (GI/VI)” value did it give?
Answer: 1.6

Question: How did the “Ratio (GI/VI)” value turn out when `CCCCCCCCCCCCCCCC[P+](c1ccccc1)(c1ccccc1)c1ccccc1` [Compound 16] was run?
Answer: 0.8

Question: `CCCCCCC[P+](c1ccccc1)(c1ccccc1)c1ccccc1` [Compound 8, heptyl triphenylphosphonium bromide] was tested. Which “Ratio (GI/VI)” value did it give?
Answer: 2.8

Question: `CCCCCCCCCCCCC[P+](c1ccccc1)(c1ccccc1)c1ccccc1` [Compound 13] was tested. Which “Ratio (GI/VI)” value did it give?
Answer: 0.8

Question: With `CCCCCCCCCCC[P+](c1ccccc1)(c1ccccc1)c1ccccc1` [Compound 11] as the compound, how does the “Ratio (GI/VI)” value read?
Answer: 1.4

Question: Which “Ratio (GI/VI)” value does the source give for `CCCCN[P+](c1ccccc1)(c1ccccc1)c1ccccc1` [Compound 5] here?
Answer: >3.7

Question: For `BrCCCC[P+](c1ccccc1)(c1ccccc1)c1ccccc1` [Compound 4], which “Ratio (GI/VI)” value is on record?
Answer: >3.5

Question: With `CCCCCCCCCCCC[P+](c1ccccc1)(c1ccccc1)c1ccccc1` [Compound 12] as the compound, how does the “Ratio (GI/VI)” value read?
Answer: 1.6

Question: `CCCCCCCCCCCCCC[P+](c1ccccc1)(c1ccccc1)c1ccccc1` [Compound 14] was tested. Which “Ratio (GI/VI)” value did it give?
Answer: 0.5

Question: With `CCCCCCCCCCCCCCCCCCC[P+](c1ccccc1)(c1ccccc1)c1ccccc1` [Compound 18] as the compound, how does the “Ratio (GI/VI)” value read?
Answer: 1.1

Question: `c1ccc([P+](CCCCCCCCCCCC[P+](c2ccccc2)(c2ccccc2)c2ccccc2)(c2ccccc2)c2ccccc2)cc1` [Compound 20] was tested. Which “Ratio (GI/VI)” value did it give?
Answer: 0.8

Question: Which “Ratio (GI/VI)” value does the source give for `CCCCCCCCC[P+](c1ccccc1)(c1ccccc1)c1ccccc1` [Compound 9] here?
Answer: 2.1

Question: For `CCCCCCCCCCCCCCCCCC[P+](c1ccccc1)(c1ccccc1)c1ccccc1` [Compound 17], which “Ratio (GI/VI)” value is on record?
Answer: 1.0
